Results are given in words; binding and its absence hold for the method and conditions named. In cells and extracts the contact can be indirect. These calls come from enrichment with a bait or labelling near it, and not all partners need be listed.

By UniProt entry, the sequences of proteins in these tests, tags left out.
UniProt Q6ZPV2: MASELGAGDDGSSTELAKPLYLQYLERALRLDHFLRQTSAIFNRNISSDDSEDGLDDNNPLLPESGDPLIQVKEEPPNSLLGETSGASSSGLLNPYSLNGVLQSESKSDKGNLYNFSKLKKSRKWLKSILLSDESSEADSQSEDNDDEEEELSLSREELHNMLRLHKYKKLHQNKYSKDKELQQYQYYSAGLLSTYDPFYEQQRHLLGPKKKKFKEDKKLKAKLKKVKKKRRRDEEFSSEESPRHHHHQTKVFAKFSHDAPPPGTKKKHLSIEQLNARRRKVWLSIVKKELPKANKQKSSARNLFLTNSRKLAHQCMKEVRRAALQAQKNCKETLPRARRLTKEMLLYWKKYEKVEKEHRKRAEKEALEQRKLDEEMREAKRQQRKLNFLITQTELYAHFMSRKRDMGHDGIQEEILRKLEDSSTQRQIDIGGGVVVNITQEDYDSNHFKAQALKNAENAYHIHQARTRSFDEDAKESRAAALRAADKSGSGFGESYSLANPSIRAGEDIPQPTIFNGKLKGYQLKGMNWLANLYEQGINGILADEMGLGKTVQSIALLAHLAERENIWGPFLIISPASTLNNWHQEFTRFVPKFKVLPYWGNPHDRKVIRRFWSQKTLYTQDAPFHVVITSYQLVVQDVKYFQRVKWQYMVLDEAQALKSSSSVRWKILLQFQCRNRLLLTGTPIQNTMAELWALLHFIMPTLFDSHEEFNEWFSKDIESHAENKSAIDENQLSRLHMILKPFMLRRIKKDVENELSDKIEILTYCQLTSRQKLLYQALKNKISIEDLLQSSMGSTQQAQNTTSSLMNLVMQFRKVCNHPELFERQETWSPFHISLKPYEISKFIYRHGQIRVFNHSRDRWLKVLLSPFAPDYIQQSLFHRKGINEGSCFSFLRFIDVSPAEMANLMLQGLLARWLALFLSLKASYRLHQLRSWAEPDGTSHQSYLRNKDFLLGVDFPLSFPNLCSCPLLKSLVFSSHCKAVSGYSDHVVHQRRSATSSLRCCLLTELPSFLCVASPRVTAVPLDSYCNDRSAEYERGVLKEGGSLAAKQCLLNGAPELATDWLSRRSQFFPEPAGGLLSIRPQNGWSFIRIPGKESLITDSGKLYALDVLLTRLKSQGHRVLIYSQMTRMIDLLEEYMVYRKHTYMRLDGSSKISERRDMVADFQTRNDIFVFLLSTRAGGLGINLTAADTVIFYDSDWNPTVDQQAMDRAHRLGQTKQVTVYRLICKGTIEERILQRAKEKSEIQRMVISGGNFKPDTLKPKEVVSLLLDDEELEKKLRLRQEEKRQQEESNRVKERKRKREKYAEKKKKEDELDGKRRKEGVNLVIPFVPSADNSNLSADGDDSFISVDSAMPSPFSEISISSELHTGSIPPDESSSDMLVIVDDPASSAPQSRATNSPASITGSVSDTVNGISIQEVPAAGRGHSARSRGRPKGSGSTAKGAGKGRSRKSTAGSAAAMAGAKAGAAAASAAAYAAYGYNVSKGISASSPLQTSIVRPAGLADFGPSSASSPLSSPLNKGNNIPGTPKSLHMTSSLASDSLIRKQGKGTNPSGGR

This is an account of results in PMC12012327.

For the assay, the target named is T1, OLIG2 (mouse (endogenous in cultured mouse OL lineage cells)) (UniProt Q9EQW6).
T1 sequence: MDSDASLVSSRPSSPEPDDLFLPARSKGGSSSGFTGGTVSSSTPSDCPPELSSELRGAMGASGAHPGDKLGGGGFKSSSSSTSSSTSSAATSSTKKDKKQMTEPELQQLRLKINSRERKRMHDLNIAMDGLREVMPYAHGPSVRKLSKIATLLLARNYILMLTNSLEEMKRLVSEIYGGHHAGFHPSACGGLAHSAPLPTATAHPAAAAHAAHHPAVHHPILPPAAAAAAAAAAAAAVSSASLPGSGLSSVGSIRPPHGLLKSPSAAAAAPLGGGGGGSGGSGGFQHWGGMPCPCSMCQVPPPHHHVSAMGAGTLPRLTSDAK
As to the kind of experiment: affinity purification with mass spectrometry; RIME (rapid immunoprecipitation mass spectrometry of endogenous protein): endogenous OLIG2 precipitated with rabbit anti-OLIG2 (AB9610, Millipore) from 1 x 10^7 OL-differentiated mouse NSCs; rabbit pre-immune IgG as control; three replicates per group; on-bead trypsin digestion.

For the substance INO80 (from UniProt Q6ZPV2 1-1559), the binding entry is recorded as “binds”.
